Test results reported in the supplement of paper PMC9135407.
Where “and” joins values, the source holds several entries; their conditions need not be identical. Equal values may be shown once. Where a name gives a salt, the structure may show the parent alone. ± gives the standard deviation of the averaged measurements. Some of the results follow. Baselines shift from plate to plate; read single values as rough.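 Assay uses culture-activated primary human stellate myofibroblasts; lipid droplet recovery indicates inactivation. Measured: proportion of Hoechst-counted cells over a plate-specific Bodipy cutoff, duplicate wells, DMSO and nortriptyline as per-plate negative and positive controls. A hit scores, control-normalized, above the plate's top-tenth-percentile nortriptyline wells or ranks among its three best wells. Final well concentrations not reported.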

Test system: primary human hepatic stellate cells (donor 1)
Assay: percent Bodipy-positive cells; higher = more lipid droplet accumulation
Conditions: 48 h
[1] = library stock concentration: 10 mM
[2] = library stock concentration: 3.33 mM
[3] = library stock concentration: 400 uM
[4] = library stock concentration: 2 mM
[5] = library stock concentration: 4.9 mM
[6] = library stock concentration: 80 uM
[7] = library stock concentration: 1 mM

CCCCCOC(=O)Nc1nc(=O)n([C@@H]2O[C@H](C)[C@@H](O)[C@H]2O)cc1F
percent Bodipy-positive cells [1]: 48.3 ± 26%

CCCCCOC(=O)Nc1nc(=O)n([C@@H]2O[C@H](C)[C@@H](O)[C@H]2O)cc1F [Capecitabine]
percent Bodipy-positive cells [2]: 9.84 ± 2.4% | percent Bodipy-positive cells [1]: 17.2 ± 0.0064%

COc1ccc2cc(-c3nc(-c4ccc([S+](C)[O-])cc4)[nH]c3-c3ccncc3)ccc2c1 (stereo unspecified) [Tie2 kinase inhibitor]
percent Bodipy-positive cells [2]: 27.7 ± 14% | percent Bodipy-positive cells [1]: 38.7 ± 18%

Cl.Cl.NC1(c2ccc(-c3nc4ccn5c(=O)[nH]nc5c4cc3-c3ccccc3)cc2)CCC1
percent Bodipy-positive cells [3]: 89.6 ± 2.4% | percent Bodipy-positive cells [4]: 99.4 ± 0.26%

CCN(CC)CCOc1ccc(C(=C(Cl)c2ccccc2)c2ccccc2)cc1 [Clomiphene citrate]
percent Bodipy-positive cells [5]: 52.1 ± 3.9% | percent Bodipy-positive cells [1]: 16.1 ± 2.5%

CCN(CC)CCOc1ccc(C(=C(Cl)c2ccccc2)c2ccccc2)cc1 [Clomifene citrate]
percent Bodipy-positive cells [2]: 57.3 ± 1%

C[C@@H](CN1CCC(n2c(=O)[nH]c3cc(Cl)ccc32)CC1)NC(=O)c1ccc2ccccc2c1.Cl
percent Bodipy-positive cells [1]: 80.8 ± 12%

CN1CCC(=C2c3ccccc3CCc3sccc32)CC1 [Pizotifen Malate]
percent Bodipy-positive cells [2]: 42.2 ± 1.4%

CN1CCC(=C2c3ccccc3CCc3sccc32)CC1 [Pizotifen malate]
percent Bodipy-positive cells: 48.8 ± 2.4%

CN1CCC(=C2c3ccccc3CCc3sccc32)CC1 [Pizotyline malate]
percent Bodipy-positive cells (library stock concentration: 4.7 mM): 75.2 ± 4.1%

CCc1cc(-c2n[nH]c(C)c2-c2ccc3c(c2)OCCO3)c(O)cc1O
percent Bodipy-positive cells [1]: 24.3 ± 3.8%

COc1ncc(-c2ccc3nccc(-c4ccnnc4)c3c2)cc1NS(=O)(=O)c1ccc(F)cc1F
percent Bodipy-positive cells [6]: 11.4 ± 3.1% | percent Bodipy-positive cells [3]: 18.2 ± 4.2% | percent Bodipy-positive cells [4]: 12.6 ± 8.2% | percent Bodipy-positive cells [2]: 13.9 ± 1.4% | percent Bodipy-positive cells [1]: 57.7% and 57.3%

CN(C)C/C=C/C(=O)Nc1cccc(Nc2ncc3c(n2)N(C)c2ccccc2C(=O)N3C)c1
percent Bodipy-positive cells [6]: 13.1 ± 2% | percent Bodipy-positive cells [3]: 25.1 ± 4.3% | percent Bodipy-positive cells [4]: 80.1 ± 3% | percent Bodipy-positive cells [1]: 100%

CNCCC[C@]12CC[C@H](c3ccccc31)c1ccccc12 [Maprotiline HCl]
percent Bodipy-positive cells (library stock concentration: 7.2 mM): 78.9 ± 2%

COC(=O)c1ccc2c(c1)NC(=O)C2=C(Nc1ccc(N(C)C(=O)CN2CCN(C)CC2)cc1)c1ccccc1 [Nintedanib (BIBF 1120)]
percent Bodipy-positive cells [2]: 87.7 ± 5.9% | percent Bodipy-positive cells [1]: 90.8 ± 1.6%

CN1CCOC(c2ccccc2)c2ccccc2C1 (stereo unspecified) [Nefopam]
percent Bodipy-positive cells (library stock concentration: 7.9 mM): 64.9 ± 5.4% | percent Bodipy-positive cells [1]: 57.1 ± 12%

CN1CCOC(c2ccccc2)c2ccccc2C1 (stereo unspecified) [Nefopam hydrochloride]
percent Bodipy-positive cells: 63.1 ± 5.4%

N=C(N)NCCCCN [Agmatine sulfate]
percent Bodipy-positive cells [1]: 45.9% and 28.2%

O=S(=O)(O)c1cc(I)c(O)c2ncccc12
percent Bodipy-positive cells [1]: 25.7 ± 6.5%

c1cc(-c2cnn3cc(-c4ccc(OCCN5CCCCC5)cc4)cnc23)ccn1 [AMPK Inhibitor, Compound C]
percent Bodipy-positive cells [2]: 16.2 ± 6.5%

c1cc(-c2cnn3cc(-c4ccc(OCCN5CCCCC5)cc4)cnc23)ccn1 [Dorsomorphin]
percent Bodipy-positive cells [6]: 12.6 ± 6.8% | percent Bodipy-positive cells [3]: 21.7 ± 8% | percent Bodipy-positive cells [4]: 42.5 ± 1.8% | percent Bodipy-positive cells [1]: 77.4 ± 4.5%

c1cc2c3c(c1)c1c(n3CCNC2)CCCC1 [WAY 629 hydrochloride]
percent Bodipy-positive cells [1]: 25.7 ± 4.6%

CCCCCCCCCCCCCCCCOC[C@@H](O)COP(=O)(O)O [1-Hexadecyl Lysophosphatidic Acid]
percent Bodipy-positive cells [7]: 8.86 ± 2.2%

O=C1[C@H](CC[C@H](O)c2ccc(F)cc2)[C@@H](c2ccc(O)cc2)N1c1ccc(F)cc1 [Ezetimibe]
percent Bodipy-positive cells [2]: 16.8 ± 0.8% | percent Bodipy-positive cells [5]: 10.1 ± 4.1% | percent Bodipy-positive cells [1]: 15.1% and 36.9%

O=C1[C@H](CC[C@H](O)c2ccc(F)cc2)[C@@H](c2ccc(O)cc2)N1c1ccc(F)cc1
percent Bodipy-positive cells [1]: 14 ± 3.1%

CC1COCCN1c1cc(C2(S(C)(=O)=O)CC2)nc(-c2cccc3[nH]ccc23)n1 (stereo unspecified)
percent Bodipy-positive cells [2]: 3.47 ± 0.061% | percent Bodipy-positive cells [1]: 33.8 ± 8.5%

Cn1cc(C2=C(c3cn(CCCN)c4ccccc34)C(=O)NC2=O)c2ccccc21 [Bisindolylmaleimide VIII (acetate)]
percent Bodipy-positive cells [7]: 14.7 ± 1.7%

CCN1C(=CC(C)=O)Sc2ccc(OC)cc21
percent Bodipy-positive cells [2]: 26 ± 2.5% | percent Bodipy-positive cells [1]: 36.3 ± 11%

COC(=O)CC(NC(=O)C(C)NC(=O)C(NC(=O)OCc1ccccc1)C(C)C)C(=O)CF (stereo unspecified)
percent Bodipy-positive cells [2]: 11.51 ± 0.085% | percent Bodipy-positive cells [1]: 43.3 ± 0.047%

Cc1cc(-c2ncc(CC(=O)Nc3ccc(-c4cnccn4)cn3)cc2C)ccn1
percent Bodipy-positive cells [2]: 36.3 ± 7.3% | percent Bodipy-positive cells [1]: 44.7 ± 1.4%

O=C(O)COCCN1CCN([C@H](c2ccccc2)c2ccc(Cl)cc2)CC1
percent Bodipy-positive cells [1]: 11.1% and 32.5%

Cc1cnc(C(=O)NCCc2ccc(S(=O)(=O)NC(=O)NC3CCCCC3)cc2)cn1 [Glipizide]
percent Bodipy-positive cells: 50.9 ± 20% | percent Bodipy-positive cells [2]: 9.98 ± 1.2% | percent Bodipy-positive cells (library stock concentration: 4.5 mM): 8.06% and 21.7%

Cc1cnc(C(=O)NCCc2ccc(S(=O)(=O)NC(=O)NC3CCCCC3)cc2)cn1
percent Bodipy-positive cells [1]: 25.2 ± 2.7%

CN(C)[C@@H]1CCc2[nH]c3ccc(NC(=O)c4ccc(F)cc4)cc3c2C1.Cl
percent Bodipy-positive cells [1]: 85.7 ± 2.5%

CCc1ccc2c(O)c3c(cc2c1C(=O)OC)C(=O)c1c(O)ccc(O)c1C3=O [Bisanhydrorutilantinone]
percent Bodipy-positive cells [1]: 36.8 ± 1.8%

O=C(Cc1ccccc1)Nc1nc2ccc(Cl)cc2c2nc(-c3ccco3)nn12
percent Bodipy-positive cells [1]: 42.4 ± 8.1%

CC(C)NC[C@H](O)COc1cccc2[nH]ccc12 [S(-)-Pindolol]
percent Bodipy-positive cells [1]: 36.6 ± 13%

CC(C)NC[C@H](O)COc1cccc2[nH]ccc12 [(S)-(-)-Pindolol]
percent Bodipy-positive cells [1]: 10.4 ± 1%

NC(=O)Nc1sc(-c2ccccc2)cc1C(N)=O [IKK-2 Inhibitor VI]
percent Bodipy-positive cells [2]: 12.8 ± 2.1%

CN1CCC(NC(=O)c2cc(-c3c(O)cc(O)cc3Oc3ccc([N+](=O)[O-])cc3)on2)CC1
percent Bodipy-positive cells [2]: 86.5 ± 1.6%

CC(O)(P(=O)(O)O)P(=O)(O)O [Etidronic acid, disodium salt]
percent Bodipy-positive cells: 6.29 ± 5%

CC(O)(P(=O)(O)O)P(=O)(O)O [Etidronate disodium]
percent Bodipy-positive cells (library stock concentration: 8 mM): 7.41 ± 3.6%

COc1ccccc1N1CCN(CCCCNC(=O)c2ccc3ccccc3c2)CC1
percent Bodipy-positive cells: 57.6 ± 1.3%

NC(=O)c1ccc[n+]([C@@H]2O[C@H](COP(=O)([O-])OP(=O)(O)OC[C@H]3O[C@@H](n4cnc5c(N)ncnc54)[C@H](OP(=O)(O)O)[C@@H]3O)[C@@H](O)[C@H]2O)c1 [Sodium beta-nicotinamide adenine dinucleotide phosphate]
percent Bodipy-positive cells [1]: 38.5 ± 3.7%

CCC1NC(=O)c2cc(S(N)(=O)=O)c(Cl)cc2N1 (stereo unspecified) [Quinethazone]
percent Bodipy-positive cells: 5.5 ± 1.3%

Nc1ncnc2c1C(=O)N(c1ccc([C@H]3CC[C@H](CC(=O)O)CC3)cc1)CCO2
percent Bodipy-positive cells [2]: 23.3 ± 5% | percent Bodipy-positive cells [1]: 43.37 ± 0.24%

Cc1ccc2c(=O)c3ccccc3n(CCCN)c2c1C
percent Bodipy-positive cells [1]: 54.4 ± 0.78%

Nc1ncnc2c1c(-c1cccc(OCc3ccccc3)c1)cn2[C@H]1C[C@H](CN2CCCC2)C1
percent Bodipy-positive cells [2]: 83 ± 2.6%

COc1ccc(CN2CCN(C(c3ccc(F)cc3)c3ccc(F)cc3)CC2)c(OC)c1OC [Lomerizine HCl]
percent Bodipy-positive cells [2]: 26.6 ± 1.5% | percent Bodipy-positive cells [1]: 66.2 ± 11%

CC(C)Cc1ccc(C(C)C(=O)O)cc1 (stereo unspecified)
percent Bodipy-positive cells [1]: 26.3 ± 5%

CC(C)Cc1ccc(C(C)C(=O)O)cc1 (stereo unspecified) [Ibuprofen]
percent Bodipy-positive cells [2]: 8.22 ± 3.7% | percent Bodipy-positive cells (library stock concentration: 9.7 mM): 6.04% and 3.84% | percent Bodipy-positive cells [1]: 10.4% and 17.9%

CC(C)Cc1ccc(C(C)C(=O)O)cc1 (stereo unspecified) [(?)-Ibuprofen]
percent Bodipy-positive cells [7]: 6.03 ± 0.69% | percent Bodipy-positive cells [1]: 44.6 ± 7.8%

COC1=CC(=O)C=C(OC)C1=O [2,6-dimethoxyquinone]
percent Bodipy-positive cells [1]: 98.28 ± 0.93%

OCc1ccccn1
percent Bodipy-positive cells [1]: 32.1 ± 10%

CN(C(=O)c1c(O)c2ccccc2n(C)c1=O)c1ccccc1 [Linomide]
percent Bodipy-positive cells [1]: 4.83 ± 0.86%

CCCCC[C@H](O)/C=C/[C@@H]1[C@H](CCCCCCC(=O)O)[C@@H](O)C[C@H]1O [8-iso Prostaglandin F1.alpha.]
percent Bodipy-positive cells [7]: 13.9 ± 2.5%

Nc1nc2[nH]cc(CCc3ccc(C(=O)N[C@@H](CCC(=O)O)C(=O)O)cc3)c2c(=O)[nH]1
percent Bodipy-positive cells [1]: 44.1 ± 7.9%

CCCCCCCCCCCCCCCCOCC(COP(=O)([O-])OCC[N+](C)(C)C)OC (stereo unspecified) [1-Hexadecyl-2-methylglycero-3 PC]
percent Bodipy-positive cells [7]: 6.87 ± 0.97%

CCN1CCN(Cc2ccc(Nc3ncc(F)c(-c4cc(F)c5nc(C)n(C(C)C)c5c4)n3)nc2)CC1 [Abemaciclib]
percent Bodipy-positive cells [6]: 32 ± 8.8% | percent Bodipy-positive cells [3]: 41.6 ± 6.6% | percent Bodipy-positive cells [1]: 98.983 ± 0.066%

COCCc1ccc(OCC(O)CNC(C)C)cc1 (stereo not drawn) [(?)-Metoprolol (+)-tartrate]
percent Bodipy-positive cells [1]: 48.4 ± 16%

COCCc1ccc(OCC(O)CNC(C)C)cc1 (stereo unspecified) [Metoprolol Tartrate]
percent Bodipy-positive cells [2]: 5.54 ± 0.95% | percent Bodipy-positive cells [1]: 27.6 ± 6.2%

COCCc1ccc(OCC(O)CNC(C)C)cc1 (stereo unspecified) [Metoprolol tartrate]
percent Bodipy-positive cells (library stock concentration: 4.8 mM): 3.37 ± 0.33% | percent Bodipy-positive cells (library stock concentration: 7.5 mM): 12.5 ± 1.3% | percent Bodipy-positive cells [1]: 12.9 ± 0.59%

COc1ccc(C(=O)c2ccccc2O)c(O)c1 [Dioxybenzone]
percent Bodipy-positive cells: 16.4 ± 9.3% | percent Bodipy-positive cells [1]: 21.4 ± 0.52%

CCCCC[C@H](O)/C=C/[C@@H]1[C@@H](C/C=C\CCCC(=O)NCCO)[C@@H](O)C[C@@H]1O [11.beta.-Prostaglandin F2.alpha. Ethanolamide]
percent Bodipy-positive cells [7]: 18.1 ± 6.3%

CC(C)(C)NC[C@H](O)COc1ccccc1C1CCCC1 [Penbutolol sulfate]
percent Bodipy-positive cells: 51.2 ± 1.9%

O=C(O)c1cc(I)ccc1NC(=O)[C@H](Cc1ccccc1)NCc1ccccc1
percent Bodipy-positive cells [2]: 26 ± 3.8% | percent Bodipy-positive cells [1]: 27.5 ± 9.7%

N[C@H](C(=O)O)[C@H]1C[C@@H]1C(=O)O [(2S,1'S,2'S)-2-(carboxycyclopropyl)glycine]
percent Bodipy-positive cells [1]: 28.1 ± 1.7%

Cc1ncc(COP(=O)([O-])[O-])c(CN(CCN(CC(=O)O)Cc2c(COP(=O)([O-])O)cnc(C)c2O)CC(=O)O)c1O.[Mn].[Na+].[Na+].[Na+]
percent Bodipy-positive cells [1]: 41.8 ± 3.5%

COc1ccc2cccc(N3CCN(CCNC(=O)c4ccc(F)cc4)CC3)c2c1
percent Bodipy-positive cells [1]: 40.31 ± 0.23%

CC(C)CC[C@@H](O)[C@@H](C)[C@H]1CC[C@H]2[C@@H]3CC=C4C[C@@H](O)CC[C@]4(C)[C@H]3CC[C@]12C [22(R)-hydroxy Cholesterol]
percent Bodipy-positive cells [7]: 11.71 ± 0.024%

CC(C)NC[C@@H](C(=O)N1CCN(c2ncnc3c2[C@H](C)C[C@H]3O)CC1)c1ccc(Cl)cc1
percent Bodipy-positive cells [1]: 53.8 ± 3.1%

CC1=C(C/C=C(\C)CCC[C@H](C)CCC[C@H](C)CCCC(C)C)C(=O)c2ccccc2C1=O [Phylloquinone]
percent Bodipy-positive cells [1]: 11.1 ± 4%

CC1=C(C/C=C(\C)CCC[C@H](C)CCC[C@H](C)CCCC(C)C)C(=O)c2ccccc2C1=O [Phytonadione]
percent Bodipy-positive cells (library stock concentration: 4.4 mM): 1.44 ± 0.86%

CN1CCN(S(=O)(=O)c2ccc(-c3cnc(N)c(C(=O)Nc4cccnc4)n3)cc2)CC1
percent Bodipy-positive cells [1]: 94.2 ± 2.1%

COc1ccc(CC(=O)NC(/N=C(\NC#N)Nc2cccc3ncccc23)C(C)(C)C)cc1OC (stereo unspecified)
percent Bodipy-positive cells [1]: 13.1 ± 5.3%
